Experimental findings from PMC12556802, “Rules of engagement: Determinants of chemokine receptor activation and selectivity by CCL27 and CCL28” (The Journal of Biological Chemistry, 2025) are described below.

By UniProt entry, the sequences of proteins in these tests, tags left out. Residues count along the entry.
UniProt P80098, residues 24-99: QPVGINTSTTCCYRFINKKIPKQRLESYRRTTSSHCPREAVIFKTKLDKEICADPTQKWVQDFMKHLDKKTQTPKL
UniProt P32121: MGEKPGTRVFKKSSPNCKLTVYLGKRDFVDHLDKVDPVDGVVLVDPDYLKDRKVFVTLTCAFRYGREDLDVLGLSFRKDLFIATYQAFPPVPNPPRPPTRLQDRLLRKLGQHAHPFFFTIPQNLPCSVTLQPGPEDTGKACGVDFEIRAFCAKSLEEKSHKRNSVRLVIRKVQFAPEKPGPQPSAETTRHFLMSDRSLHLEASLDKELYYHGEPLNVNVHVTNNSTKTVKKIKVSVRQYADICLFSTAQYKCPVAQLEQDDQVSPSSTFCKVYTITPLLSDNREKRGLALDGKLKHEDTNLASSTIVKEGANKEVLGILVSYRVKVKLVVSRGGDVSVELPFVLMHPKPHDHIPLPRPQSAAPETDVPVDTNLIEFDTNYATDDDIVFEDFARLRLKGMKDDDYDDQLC

These are yes or no findings as the source states them, for the method shown. For some assays here: In cells and extracts the contact can be indirect. Some entries that bind do so weakly or less than the wild type. For some assays here: Sequences can lack the tags named with a protein.

The target of test [1] is T1, CC chemokine receptor 3 (CCR3) on L1.2 cells (human) (UniProt P51677).
T1 sequence: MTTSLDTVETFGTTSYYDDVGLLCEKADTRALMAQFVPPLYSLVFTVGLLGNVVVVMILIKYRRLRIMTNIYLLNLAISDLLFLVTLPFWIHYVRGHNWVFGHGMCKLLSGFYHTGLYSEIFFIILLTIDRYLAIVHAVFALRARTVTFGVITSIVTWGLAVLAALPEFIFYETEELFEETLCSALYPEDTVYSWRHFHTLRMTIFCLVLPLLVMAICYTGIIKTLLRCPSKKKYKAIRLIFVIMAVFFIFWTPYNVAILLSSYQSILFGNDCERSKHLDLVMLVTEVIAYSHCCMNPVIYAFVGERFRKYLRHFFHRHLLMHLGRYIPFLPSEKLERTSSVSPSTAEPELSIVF
Briefly: flow cytometry on cells; competition on L1.2/CCR3 cells (CCR3 induced with 5 mM sodium butyrate for ~22 h): 250 nM CCL7-HA alone or with a 4-fold excess of competing ligand (1000 nM), 30 min on ice, washed, bound CCL7-HA detected with an anti-HA antibody; only the binder purified.

A further test has as its target T2, CCR10-RlucII (human, UniProt P46092 1-362).
T2 sequence (looked up): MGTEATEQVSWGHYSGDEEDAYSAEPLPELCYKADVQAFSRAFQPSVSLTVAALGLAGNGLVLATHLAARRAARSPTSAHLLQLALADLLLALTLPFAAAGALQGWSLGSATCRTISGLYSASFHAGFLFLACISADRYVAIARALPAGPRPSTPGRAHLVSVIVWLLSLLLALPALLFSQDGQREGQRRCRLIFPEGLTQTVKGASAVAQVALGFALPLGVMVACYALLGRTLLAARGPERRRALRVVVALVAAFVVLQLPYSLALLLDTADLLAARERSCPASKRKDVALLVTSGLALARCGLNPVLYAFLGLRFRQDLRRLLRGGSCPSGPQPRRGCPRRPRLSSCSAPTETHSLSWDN
Briefly: FRET or BRET; HEK293 cells transiently transfected with CCR10-RlucII (donor) and βarr2-GFP10 (acceptor), stimulated with varying concentrations of chemokine (CCL27, F-CCL27, NT28-CCL27); Tyrode's buffer, 5 μM Prolume Purple, read every 5 min for 30 min. Background: BRET reads energy transfer from a luciferase to a nearby fluorophore.

For the substance “C terminally HA-tagged CCL7 (from UniProt P80098 24-99) (ligand)”, in test [1], the binding entry is on record as “binds”.
For “GFP10-tagged β-arrestin2 (from UniProt P32121 1-409)”, the binding result in the test with CCR10-RlucII is “binds”.
